From article PMC9202211
Results are given in words; binding and its absence hold for the method and conditions named. In cells and extracts the contact can be indirect. Some binding calls cover weakened binding; strength is not graded here.

Target: T1, Gamma-aminobutyric acid type A receptor subunit delta (human (endogenous in Eca-109)) (UniProt O14764)
T1 sequence: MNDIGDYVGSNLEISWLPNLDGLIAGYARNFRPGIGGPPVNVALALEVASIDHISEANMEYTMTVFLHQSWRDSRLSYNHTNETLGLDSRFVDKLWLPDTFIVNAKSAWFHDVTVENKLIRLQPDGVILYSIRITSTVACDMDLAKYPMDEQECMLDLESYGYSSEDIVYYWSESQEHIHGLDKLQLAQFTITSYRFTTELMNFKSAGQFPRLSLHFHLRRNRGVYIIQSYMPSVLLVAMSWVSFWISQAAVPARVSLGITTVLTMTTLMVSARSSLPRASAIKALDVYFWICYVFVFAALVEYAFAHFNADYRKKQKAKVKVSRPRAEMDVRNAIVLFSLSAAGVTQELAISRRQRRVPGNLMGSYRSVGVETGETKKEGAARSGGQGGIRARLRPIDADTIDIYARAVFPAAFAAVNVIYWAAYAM
Test: co-IP; 1.0 mg total protein of Eca-109 cell lysate incubated with anti-GABRD at 4 °C for 2 h; protein A/G beads; western blot for DEPDC1B

- binding: binds
Substance: …, EGL-10, … (DEP) domain-containing 1B (from UniProt Q8WUY9 1-529)
